Test results from PMC9618391 (2022).
Changes are numbered by the printed parent chain. In names and notes the source's numbering stands. These are yes or no findings as the source states them, for the method shown. In cells and extracts the contact can be indirect. Some entries that bind do so weakly or less than the wild type.

T1: μ1A subunit of AP-1A, endogenous in rat PCCl3 cells (rat (endogenous in PCCl3)) (UniProt Q32Q06)
T1 sequence: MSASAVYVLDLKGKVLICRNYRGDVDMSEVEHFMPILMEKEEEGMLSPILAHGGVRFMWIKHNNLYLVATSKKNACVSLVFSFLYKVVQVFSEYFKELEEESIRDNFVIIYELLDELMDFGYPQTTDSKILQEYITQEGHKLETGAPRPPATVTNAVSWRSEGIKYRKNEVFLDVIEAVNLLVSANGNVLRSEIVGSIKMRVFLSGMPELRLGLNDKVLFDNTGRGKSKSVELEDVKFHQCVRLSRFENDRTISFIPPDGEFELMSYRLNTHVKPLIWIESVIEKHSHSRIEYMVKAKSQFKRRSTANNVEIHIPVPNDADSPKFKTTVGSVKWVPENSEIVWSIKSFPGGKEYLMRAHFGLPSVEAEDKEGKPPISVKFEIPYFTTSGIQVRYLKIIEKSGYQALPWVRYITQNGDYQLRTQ

T2: μ1A (AP1M1) expressed from cDNA in COS-7 cells (UniProt Q9BXS5)
T2 sequence: T1 sequence with A178S, V295I

T3: μ1B (AP1M2) expressed from cDNA in COS-7 cells (UniProt Q9Y6Q5)
T3 sequence: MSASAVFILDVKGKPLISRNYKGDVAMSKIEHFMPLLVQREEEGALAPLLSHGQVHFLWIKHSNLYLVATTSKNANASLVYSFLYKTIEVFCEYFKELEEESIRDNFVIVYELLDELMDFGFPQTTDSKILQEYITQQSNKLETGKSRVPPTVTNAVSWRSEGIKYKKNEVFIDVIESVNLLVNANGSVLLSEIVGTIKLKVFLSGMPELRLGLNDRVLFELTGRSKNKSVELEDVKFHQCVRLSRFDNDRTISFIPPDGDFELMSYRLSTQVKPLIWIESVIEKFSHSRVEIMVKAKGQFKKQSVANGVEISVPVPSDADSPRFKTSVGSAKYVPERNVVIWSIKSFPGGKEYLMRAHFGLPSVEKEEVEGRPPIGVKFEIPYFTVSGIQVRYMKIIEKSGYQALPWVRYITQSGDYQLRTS

B1: sodium/iodide symporter (NIS), endogenous in rat PCCl3 cells (protein, UniProt Q63008 1-618)
chain: MEGAEAGARATFGAWDYGVFATMLLVSTGIGLWVGLARGGQRSADDFFTGGRQLAAVPVGLSLAASFMSAVQVLGVPAEAARYGLKFLWMCAGQLLNSLLTAFLFLPIFYRLGLTSTYQYLELRFSRAVRLCGTLQYLVATMLYTGIVIYAPALILNQVTGLDIWASLLSTGIICTLYTTVGGMKAVVWTDVFQVVVMLVGFWVILARGVILLGGPRNVLSLAQNHSRINLMDFDPDPRSRYTFWTFIVGGTLVWLSMYGVNQAQVQRYVACHTEGKAKLALLVNQLGLFLIVASAACCGIVMFVYYKDCDPLLTGRISAPDQYMPLLVLDIFEDLPGVPGLFLACAYSGTLSTASTSINAMAAVTVEDLIKPRMPGLAPRKLVFISKGLSFIYGSACLTVAALSSLLGGGVLQGSFTVMGVISGPLLGAFTLGMLLPACNTPGVLSGLAAGLAVSLWVAVGATLYPPGEQTMGVLPTSAAGCTNDSVLLGPPGATNASNGIPSSGMDTGRPALADTFYAISYLYYGALGTLTTMLCGALISYLTGPTKRSSLGPGLLWWDLARQTASVAPKEDTATLEESLVKGPEDIPAVTKKPPGLKPGAETHPLYLGHDVETNL
B2: hNIS Y120A (protein, UniProt Q92911 1-643)
chain: MEAVETGERPTFGAWDYGVFALMLLVSTGIGLWVGLARGGQRSAEDFFTGGRRLAALPVGLSLSASFMSAVQVLGVPSEAYRYGLKFLWMCLGQLLNSVLTALLFMPVFYRLGLTSTYEALEMRFSRAVRLCGTLQYIVATMLYTGIVIYAPALILNQVTGLDIWASLLSTGIICTFYTAVGGMKAVVWTDVFQVVVMLSGFWVVLARGVMLVGGPRQVLTLAQNHSRINLMDFNPDPRSRYTFWTFVVGGTLVWLSMYGVNQAQVQRYVACRTEKQAKLALLINQVGLFLIVSSAACCGIVMFVFYTDCDPLLLGRISAPDQYMPLLVLDIFEDLPGVPGLFLACAYSGTLSTASTSINAMAAVTVEDLIKPRLRSLAPRKLVIISKGLSLIYGSACLTVAALSSLLGGGVLQGSFTVMGVISGPLLGAFILGMFLPACNTPGVLAGLGAGLALSLWVALGATLYPPSEQTMRVLPSSAARCVALSVNASGLLDPALLPANDSSRAPSSGMDASRPALADSFYAISYLYYGALGTLTTVLCGALISCLTGPTKRSTLAPGLLWWDLARQTASVAPKEEVAILDDNLVKGPEELPTGNKKPPGFLPTNEDRLFFLGQKELEGAGSWTPCVGHDGGRDQQETNL

How the values were obtained:
[1] = target: T1, μ1A subunit of AP-1A, endogenous in rat PCCl3 cells (rat (endogenous in PCCl3)); assay: co-IP; endogenous proteins of PCCl3 cells; IP with rNIS, μ1A or μ1B antibodies, Western blotting of input and IP complexes
[2] = target: T2, μ1A (AP1M1) expressed from cDNA in COS-7 cells; assay: co-IP; COS-7 cells cotransfected with WT hNIS or mutants and with μ1A or μ1B; IP with μ1A or μ1B antibodies, immunoblot with rabbit polyclonal anti-hNIS antibody; NIS signal in IP standardized to input and normalized to WT
[3] = target: T3, μ1B (AP1M2) expressed from cDNA in COS-7 cells; assay: as above

Binder | binding [1] | binding [2] | binding [3]
B1 | binds | – | –
B2 | – | binds | binds
